In article PMC6126876:
Results are given in words; binding and its absence hold for the method and conditions named. In cells and extracts the contact can be indirect. Some entries that bind do so weakly or less than the wild type. Where a sequence is shown, tags or fusion partners need not be part of it.

Molecular target: T1, Flag-Whi2 (3xFLAG-Whi2, Saccharomyces cerevisiae) (Saccharomyces cerevisiae) (UniProt P12611)
T1 sequence: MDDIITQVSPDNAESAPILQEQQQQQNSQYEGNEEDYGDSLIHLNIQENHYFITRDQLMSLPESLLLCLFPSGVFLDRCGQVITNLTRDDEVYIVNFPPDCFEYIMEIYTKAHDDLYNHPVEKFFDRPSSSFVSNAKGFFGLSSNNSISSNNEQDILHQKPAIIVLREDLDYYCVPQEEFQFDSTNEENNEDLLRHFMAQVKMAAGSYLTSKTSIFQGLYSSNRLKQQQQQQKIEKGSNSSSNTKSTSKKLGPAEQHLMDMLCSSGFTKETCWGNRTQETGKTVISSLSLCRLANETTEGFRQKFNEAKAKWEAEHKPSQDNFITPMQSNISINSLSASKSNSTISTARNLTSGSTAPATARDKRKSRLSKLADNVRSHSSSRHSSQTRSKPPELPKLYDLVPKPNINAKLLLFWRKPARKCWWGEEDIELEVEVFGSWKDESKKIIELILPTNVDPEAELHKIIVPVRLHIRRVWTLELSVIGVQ
Experiment: co-IP; HA-Psr1 co-expressed with Flag-Whi2 or an empty vector in the WT (BY4741) yeast strain; anti-Flag immunoprecipitates analysed on immunoblots with anti-HA and anti-Flag

binding: binds
B1: HA-Psr1 (Saccharomyces cerevisiae protein phosphatase Psr1) (enzyme, UniProt Q07800 1-427)
chain: MGFISSILCCSSETTQSNSNSAYRQQQSSSLNKNRSVKHSNTKSRTRGVHQTNSPPSKTNSAATFSSTERSTGKSGISTNDNEKKKPSSPTAAVTATTTNNMTKVEKRISKDDLYEEKYEVDEDEEIDDEDNRRSRGIVQEKGDAVKDTSRQKKQQQQQQQQSQPQPQPQSQSQSQSQSQSQQRGPTVQVSSDHLIQDMNLSRVSSSSQASETSNDADDEDDEDEEYIDLTLLQQGQYHAPGYNTLLPPQDESTKGKKCLILDLDETLVHSSFKYLRSADFVLSVEIDDQVHNVYVIKRPGVEEFLERVGKLFEVVVFTASVSRYGDPLLDILDTDKVIHHRLFREACYNYEGNYIKNLSQIGRPLSDIIILDNSPASYIFHPQHAIPISSWFSDTHDNELLDIIPLLEDLSVKTSLDVGKILDVTI
